Source: PubChem BioAssay AID2685 (National Center for Advancing Translational Sciences (NCATS), 2010)
Out of some 320,000 compounds screened, about 2,100 (0.66%) were called active. This list was built around the results that the source calls inconclusive (neither active nor inactive); the mix of calls is not that of the screen. The call rests on the fitted dose curve; in most records, active means well fitted inhibition curve with a large enough effect in the signal ratio, with a control signal flat (not every such curve was filed as active); inconclusive means small, poorly fitted or top-dose-only effect, or effect the other way, or a change in a side signal; inactive means flat fitted curve, though single readings scatter; the % refers to the signal ratio. Potencies beside an inconclusive call are fits to weak or partial responses and may not hold up.
On the % scale 0 is the no-effect control and ±100 the full control effect; potency means the concentration at half of the fitted maximal effect.

Assay: qHTS Assay for Lipid Storage Modulators in Drosophila S3 Cells
Settings: BODIPY lipid droplet fluorescence, 18-24 h, cells fed with added oleic acid; lipid storage change, negative = inhibition: at 46.1 µM (top of the series) unless noted
How it was run: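 Drosophila S3 cells got compounds at several concentrations plus oleic acid (400 uM solution). Laser-scanning cytometry with 488 nm excitation read lipid droplets at 500-530 nm and cells at 575-640 nm. Percent activity was relative to 20 uM Triacsin C.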
With Nc1ccc2nn(-c3cc([N+](=O)[O-])ccc3O)nc2c1 the Potency was inconclusive: 16.4 µM [falling, partial curve].
In the case of O=C(COC(=O)c1ccc(S(=O)(=O)N2CCOCC2)cc1)NC1CCCCCCC1, the lipid storage change, negative = inhibition is reported as inconclusive: 35%.
In the case of COc1cccc(NC(=O)CN(C)C(=O)c2cccc(S(=O)(=O)N3CCN(c4ccc(F)cc4)CC3)c2)c1, the Potency is reported as inconclusive: 29.1 µM [falling, single point].
For COC(=O)c1ccccc1S(=O)(=O)N(Cc1ccco1)Cc1cc2cc(OC)ccc2[nH]c1=O, the Potency was inconclusive: 6.51 µM [activator, single point].
In the case of CCOC(=O)COc1ccc(Br)cc1/C=C/c1[nH]c(=O)[nH]c(=O)c1[N+](=O)[O-], the lipid storage change, negative = inhibition is reported as “inactive”.
With COc1ccc([C@@H]2C[C@H](c3ccccc3)Oc3cc(OC)c(OC)c(OC)c32)cc1 the Potency was active: 4.61 µM.
With Cc1cc(C(=O)NC2CC(C)(C)Cc3c2cnn3-c2ccc(F)cc2)no1 (stereo unspecified) the lipid storage change, negative = inhibition was inconclusive: -38.9%.
With COc1cc(C(=O)NNC(=O)c2ccc(NC(C)=O)cc2)cc(OC)c1OC the lipid storage change, negative = inhibition was inconclusive: -8.19%.
In the case of CCOc1ccc(C(=O)NCC(=O)OCCN2C(=O)c3ccccc3C2=O)cc1OCC, the lipid storage change, negative = inhibition is reported as inconclusive: 6.94%.
For O=C(Oc1ccccc1)c1ccc(NC(=O)c2ccco2)cc1, the Potency was inconclusive: 14.6 µM [activator, single point].
In the case of COc1ccc(C)c2sc(N(CCN(C)C)C(=O)c3cccc(N4C(=O)CCC4=O)c3)nc12, the lipid storage change, negative = inhibition is reported as inconclusive: -19.4%.
For CC1CCCCN1C(=O)CSc1nnc2c(n1)[nH]c1ccc(F)cc12 (stereo unspecified), the lipid storage change, negative = inhibition was “inactive”.
With CCOC(=O)c1cnc2c(-c3ccccc3)c(-c3ccccc3)nn2c1C the lipid storage change, negative = inhibition was inconclusive: 23.3%.
With COCC1CCCCN1Cc1cn[nH]c1-c1ccc2cc(OC)ccc2c1 (stereo unspecified) the lipid storage change, negative = inhibition was inconclusive: 38.1%.
In the case of CC(C)(C)S(=O)(=O)c1cnc(N2CCCC2)nc1N, the lipid storage change, negative = inhibition is reported as inconclusive: 16.8%.
In the case of CC(C)CN(C(=O)CN1CCN(S(=O)(=O)c2ccccc2)CC1)c1c(N)n(CC(C)C)c(=O)[nH]c1=O, the lipid storage change, negative = inhibition is reported as inconclusive: -7.29%.
With COc1ccc(C(=O)NCC(=O)OCC(=O)NCCC2=CCCCC2)cc1 the lipid storage change, negative = inhibition was inconclusive: -136%.
In the case of Cc1cc(C(=O)Nc2cccc(NC(=O)c3ccco3)c2)ccc1[N+](=O)[O-], the Potency is reported as active: 1.84 µM.
With Cc1ccc(CN(C#N)c2nc(C)cc(C)n2)cc1 the lipid storage change, negative = inhibition was inconclusive: -50.8%.
With Cc1cc(N2CCCC2)ccc1/C=N/n1cnnc1 the Potency was inconclusive: 5.17 µM [activator, single point].
With COc1cc(-c2nn3c(-c4cccc(C)c4)nnc3s2)cc(OC)c1OC the Potency was inconclusive: 0.731 µM [activator, single point].
